Source: publication PMC8231504, “A Biophysical Insight of Camptothecin Biodistribution: Towards a Molecular Understanding of Its Pharmacokinetic Issues” (Pharmaceutics, 2021)

What was measured:
[1] = Drug location in membrane by steady-state fluorescence quenching/FRET with NBD-PE probe; details: NBD-PE labeled cancer membrane model
[2] = Synchrotron SAXS and WAXS of membrane model

CC[C@@]1(O)C(=O)OCc2c1cc1n(c2=O)Cc2cc3ccccc3nc2-1 [CPT, Camptothecin]
bimolecular quenching constant Kq [1]: 3.53e+09 M⁻¹ s⁻¹ | Stern-Volmer constant KSV ([1]; λexc 360 nm): 27.19 ± 1.41 M⁻¹ | dL (SAXS) of DMPC with CPT ([2]; Lα phase, 44.8 °C, DMPC alone 62.45 ± 0.01): 79.16 ± 3.24 Å | correlation length (SAXS) of DMPC with CPT ([2]; Lα phase, 44.8 °C, DMPC alone 1549.00 ± 275.08): 664.00 ± 263.68 Å | dL increase on addition of CPT ([2]; Lβ' phase): 8.8 Å | ds (d10, WAXS) of DMPC with CPT ([2]; Lβ' phase, 14 °C): 4.18 Å | dL (SAXS) of DMPC with CPT ([2]; Lβ' phase, 14 °C, DMPC alone 62.90 ± 0.68): 71.69 ± 7.00 Å | correlation length (SAXS) of DMPC with CPT ([2]; Lβ' phase, 14 °C, DMPC alone 547.00 ± 89.35): 258.00 ± 42.02 Å | ds (WAXS) of DMPC with CPT ([2]; Pβ phase, 20.6 °C): 4.20 Å | correlation length (SAXS) of DMPC with CPT ([2]; Pβ phase, 20.6 °C, DMPC alone 855 ± 134.68): 431.00 ± 36.72 Å
